Assay results: paper PMC3762332

Protein sequences, listed by entry. Tags and fused reporters are not part of them. Lines headed by an entry give the natural chain unless they say otherwise; changes in a name come on top.
UniProt Q8IW36: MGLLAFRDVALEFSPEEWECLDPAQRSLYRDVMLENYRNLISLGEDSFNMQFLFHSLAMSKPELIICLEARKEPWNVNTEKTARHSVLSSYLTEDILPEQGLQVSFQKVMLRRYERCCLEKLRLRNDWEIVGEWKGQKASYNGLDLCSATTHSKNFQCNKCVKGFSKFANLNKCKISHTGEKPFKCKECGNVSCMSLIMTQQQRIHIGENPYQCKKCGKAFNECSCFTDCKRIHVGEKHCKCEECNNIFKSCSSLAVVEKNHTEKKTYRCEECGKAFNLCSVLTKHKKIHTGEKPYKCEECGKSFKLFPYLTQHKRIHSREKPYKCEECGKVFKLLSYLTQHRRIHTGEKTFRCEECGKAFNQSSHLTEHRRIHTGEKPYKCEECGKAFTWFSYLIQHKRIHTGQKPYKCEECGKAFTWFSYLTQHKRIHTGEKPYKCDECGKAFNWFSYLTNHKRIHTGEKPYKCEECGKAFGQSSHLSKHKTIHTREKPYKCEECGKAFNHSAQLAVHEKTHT
UniProt Q9BWM5: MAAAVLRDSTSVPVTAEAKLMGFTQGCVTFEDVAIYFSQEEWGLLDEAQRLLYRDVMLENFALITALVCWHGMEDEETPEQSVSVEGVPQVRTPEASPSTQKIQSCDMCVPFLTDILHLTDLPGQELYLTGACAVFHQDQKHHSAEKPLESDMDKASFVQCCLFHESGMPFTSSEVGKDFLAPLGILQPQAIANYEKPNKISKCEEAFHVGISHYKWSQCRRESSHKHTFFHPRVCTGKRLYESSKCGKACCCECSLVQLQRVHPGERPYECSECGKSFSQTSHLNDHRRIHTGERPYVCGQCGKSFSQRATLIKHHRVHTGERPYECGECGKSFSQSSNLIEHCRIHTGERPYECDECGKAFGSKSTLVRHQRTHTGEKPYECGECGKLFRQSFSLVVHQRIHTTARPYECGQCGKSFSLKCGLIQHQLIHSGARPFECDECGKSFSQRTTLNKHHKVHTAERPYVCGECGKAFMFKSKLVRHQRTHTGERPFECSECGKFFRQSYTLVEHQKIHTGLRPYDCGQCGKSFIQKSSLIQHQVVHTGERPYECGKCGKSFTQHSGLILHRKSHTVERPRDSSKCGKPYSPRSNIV
UniProt O00716: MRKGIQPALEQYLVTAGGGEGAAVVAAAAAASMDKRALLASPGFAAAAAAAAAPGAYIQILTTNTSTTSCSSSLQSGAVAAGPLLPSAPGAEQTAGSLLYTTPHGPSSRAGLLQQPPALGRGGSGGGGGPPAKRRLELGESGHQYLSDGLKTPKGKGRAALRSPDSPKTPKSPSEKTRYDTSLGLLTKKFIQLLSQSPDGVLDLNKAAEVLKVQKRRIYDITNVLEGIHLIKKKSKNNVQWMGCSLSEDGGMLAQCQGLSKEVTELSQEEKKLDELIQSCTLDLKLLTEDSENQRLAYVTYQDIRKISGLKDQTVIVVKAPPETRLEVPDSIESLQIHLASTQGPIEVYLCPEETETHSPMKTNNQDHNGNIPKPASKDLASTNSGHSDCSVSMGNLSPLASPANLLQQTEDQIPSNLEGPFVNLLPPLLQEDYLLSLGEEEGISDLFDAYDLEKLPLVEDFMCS
UniProt P43694: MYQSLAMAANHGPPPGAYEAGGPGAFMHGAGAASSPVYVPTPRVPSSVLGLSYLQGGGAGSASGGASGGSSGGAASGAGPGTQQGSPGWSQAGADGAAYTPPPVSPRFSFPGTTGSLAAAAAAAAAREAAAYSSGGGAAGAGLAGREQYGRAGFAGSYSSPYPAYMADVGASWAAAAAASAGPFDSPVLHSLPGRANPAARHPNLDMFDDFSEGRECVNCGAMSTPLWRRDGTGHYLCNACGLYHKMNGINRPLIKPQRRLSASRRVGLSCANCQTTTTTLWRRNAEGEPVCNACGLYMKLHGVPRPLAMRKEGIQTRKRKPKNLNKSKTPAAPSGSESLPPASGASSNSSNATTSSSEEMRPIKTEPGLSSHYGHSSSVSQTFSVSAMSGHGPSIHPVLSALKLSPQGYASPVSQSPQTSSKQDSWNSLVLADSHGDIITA
UniProt Q8NC26: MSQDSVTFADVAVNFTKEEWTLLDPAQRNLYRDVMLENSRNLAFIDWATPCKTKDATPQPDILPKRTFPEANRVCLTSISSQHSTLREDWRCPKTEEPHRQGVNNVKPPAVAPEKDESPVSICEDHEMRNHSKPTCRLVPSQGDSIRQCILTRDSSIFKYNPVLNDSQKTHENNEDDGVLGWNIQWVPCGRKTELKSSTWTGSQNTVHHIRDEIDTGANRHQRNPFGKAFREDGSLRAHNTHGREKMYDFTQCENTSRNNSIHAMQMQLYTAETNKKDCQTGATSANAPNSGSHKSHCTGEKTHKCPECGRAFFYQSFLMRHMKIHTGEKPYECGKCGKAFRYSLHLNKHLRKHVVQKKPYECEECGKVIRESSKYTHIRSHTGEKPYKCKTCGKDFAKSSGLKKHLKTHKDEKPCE
UniProt P20719: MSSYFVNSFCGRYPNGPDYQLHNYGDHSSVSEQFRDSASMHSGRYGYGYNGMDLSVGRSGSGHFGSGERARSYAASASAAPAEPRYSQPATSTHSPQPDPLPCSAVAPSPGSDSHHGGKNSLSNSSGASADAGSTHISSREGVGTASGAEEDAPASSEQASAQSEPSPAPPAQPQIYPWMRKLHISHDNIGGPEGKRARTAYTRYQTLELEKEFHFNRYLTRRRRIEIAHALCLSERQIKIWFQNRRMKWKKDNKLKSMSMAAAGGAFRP
UniProt P37231: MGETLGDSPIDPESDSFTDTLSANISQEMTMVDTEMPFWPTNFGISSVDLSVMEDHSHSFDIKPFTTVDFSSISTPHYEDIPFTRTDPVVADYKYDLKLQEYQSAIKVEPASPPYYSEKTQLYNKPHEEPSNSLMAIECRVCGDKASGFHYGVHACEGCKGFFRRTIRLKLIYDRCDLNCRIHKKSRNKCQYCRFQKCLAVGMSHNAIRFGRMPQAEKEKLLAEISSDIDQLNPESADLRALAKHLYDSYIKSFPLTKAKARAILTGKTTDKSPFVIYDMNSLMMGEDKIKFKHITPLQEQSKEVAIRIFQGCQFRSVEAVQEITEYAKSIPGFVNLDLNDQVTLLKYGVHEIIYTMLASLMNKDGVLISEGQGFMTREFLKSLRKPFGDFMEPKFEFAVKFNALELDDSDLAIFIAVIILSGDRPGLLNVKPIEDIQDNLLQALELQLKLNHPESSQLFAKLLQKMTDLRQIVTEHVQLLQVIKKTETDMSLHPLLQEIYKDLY
UniProt P23771: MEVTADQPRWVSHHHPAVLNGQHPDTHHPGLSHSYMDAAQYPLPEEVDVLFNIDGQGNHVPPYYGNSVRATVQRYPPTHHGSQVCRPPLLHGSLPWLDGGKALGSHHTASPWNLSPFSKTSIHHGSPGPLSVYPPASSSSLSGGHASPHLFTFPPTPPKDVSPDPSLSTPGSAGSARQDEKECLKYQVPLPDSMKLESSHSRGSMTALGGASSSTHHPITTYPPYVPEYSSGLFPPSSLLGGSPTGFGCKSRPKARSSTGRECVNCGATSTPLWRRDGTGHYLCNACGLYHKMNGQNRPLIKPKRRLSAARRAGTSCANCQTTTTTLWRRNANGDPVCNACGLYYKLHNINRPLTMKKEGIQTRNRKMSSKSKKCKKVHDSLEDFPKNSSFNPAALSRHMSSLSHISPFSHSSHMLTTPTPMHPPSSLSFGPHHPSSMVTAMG

Experiments:
Assay in all cases: protein microarray
Conditions in all cases: 10-fold cold unmethylated competitor; 5mC at CpG (SssI, both strands); recombinant protein; protein details: GST (N-terminal); label: Cy5
ZNF695 (Homo sapiens) = ZNF695 (Homo sapiens) (UniProt Q8IW36)
ZNF416 (Homo sapiens) = ZNF416 (Homo sapiens) (UniProt Q9BWM5)
NFATC1 (Homo sapiens) = target: T1, NFATC1 (Homo sapiens) (UniProt O95644)
T1 sequence (looked up, limits assumed): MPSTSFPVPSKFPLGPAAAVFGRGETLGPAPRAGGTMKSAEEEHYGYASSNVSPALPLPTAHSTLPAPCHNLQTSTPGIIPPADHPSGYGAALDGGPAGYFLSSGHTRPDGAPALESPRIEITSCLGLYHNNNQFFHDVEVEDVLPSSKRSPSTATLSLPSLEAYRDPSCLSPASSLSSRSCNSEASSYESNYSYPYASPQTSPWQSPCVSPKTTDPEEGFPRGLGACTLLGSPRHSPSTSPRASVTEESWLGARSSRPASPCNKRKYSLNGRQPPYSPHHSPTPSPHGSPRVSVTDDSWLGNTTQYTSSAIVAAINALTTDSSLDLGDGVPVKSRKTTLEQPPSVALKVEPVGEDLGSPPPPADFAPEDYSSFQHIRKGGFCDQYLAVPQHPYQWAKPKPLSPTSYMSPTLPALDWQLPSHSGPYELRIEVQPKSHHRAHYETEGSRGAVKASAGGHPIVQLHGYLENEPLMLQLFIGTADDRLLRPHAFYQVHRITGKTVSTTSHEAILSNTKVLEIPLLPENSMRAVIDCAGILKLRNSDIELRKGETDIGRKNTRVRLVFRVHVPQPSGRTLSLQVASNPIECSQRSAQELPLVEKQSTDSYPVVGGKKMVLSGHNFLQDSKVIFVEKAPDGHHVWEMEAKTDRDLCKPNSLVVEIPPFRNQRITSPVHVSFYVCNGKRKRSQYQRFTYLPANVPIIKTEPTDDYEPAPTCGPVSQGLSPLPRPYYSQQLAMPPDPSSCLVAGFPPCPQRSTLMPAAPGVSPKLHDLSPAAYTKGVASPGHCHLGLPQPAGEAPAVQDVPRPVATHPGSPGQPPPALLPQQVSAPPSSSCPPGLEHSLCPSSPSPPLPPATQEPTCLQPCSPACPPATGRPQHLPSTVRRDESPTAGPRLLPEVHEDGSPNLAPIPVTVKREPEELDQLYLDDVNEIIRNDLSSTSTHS

E2F3 (Homo sapiens) = E2F3 (Homo sapiens) (UniProt O00716)
SCAPER (Homo sapiens) = target: T2, SCAPER (Homo sapiens) (UniProt Q9BY12)
T2 sequence (looked up, limits assumed): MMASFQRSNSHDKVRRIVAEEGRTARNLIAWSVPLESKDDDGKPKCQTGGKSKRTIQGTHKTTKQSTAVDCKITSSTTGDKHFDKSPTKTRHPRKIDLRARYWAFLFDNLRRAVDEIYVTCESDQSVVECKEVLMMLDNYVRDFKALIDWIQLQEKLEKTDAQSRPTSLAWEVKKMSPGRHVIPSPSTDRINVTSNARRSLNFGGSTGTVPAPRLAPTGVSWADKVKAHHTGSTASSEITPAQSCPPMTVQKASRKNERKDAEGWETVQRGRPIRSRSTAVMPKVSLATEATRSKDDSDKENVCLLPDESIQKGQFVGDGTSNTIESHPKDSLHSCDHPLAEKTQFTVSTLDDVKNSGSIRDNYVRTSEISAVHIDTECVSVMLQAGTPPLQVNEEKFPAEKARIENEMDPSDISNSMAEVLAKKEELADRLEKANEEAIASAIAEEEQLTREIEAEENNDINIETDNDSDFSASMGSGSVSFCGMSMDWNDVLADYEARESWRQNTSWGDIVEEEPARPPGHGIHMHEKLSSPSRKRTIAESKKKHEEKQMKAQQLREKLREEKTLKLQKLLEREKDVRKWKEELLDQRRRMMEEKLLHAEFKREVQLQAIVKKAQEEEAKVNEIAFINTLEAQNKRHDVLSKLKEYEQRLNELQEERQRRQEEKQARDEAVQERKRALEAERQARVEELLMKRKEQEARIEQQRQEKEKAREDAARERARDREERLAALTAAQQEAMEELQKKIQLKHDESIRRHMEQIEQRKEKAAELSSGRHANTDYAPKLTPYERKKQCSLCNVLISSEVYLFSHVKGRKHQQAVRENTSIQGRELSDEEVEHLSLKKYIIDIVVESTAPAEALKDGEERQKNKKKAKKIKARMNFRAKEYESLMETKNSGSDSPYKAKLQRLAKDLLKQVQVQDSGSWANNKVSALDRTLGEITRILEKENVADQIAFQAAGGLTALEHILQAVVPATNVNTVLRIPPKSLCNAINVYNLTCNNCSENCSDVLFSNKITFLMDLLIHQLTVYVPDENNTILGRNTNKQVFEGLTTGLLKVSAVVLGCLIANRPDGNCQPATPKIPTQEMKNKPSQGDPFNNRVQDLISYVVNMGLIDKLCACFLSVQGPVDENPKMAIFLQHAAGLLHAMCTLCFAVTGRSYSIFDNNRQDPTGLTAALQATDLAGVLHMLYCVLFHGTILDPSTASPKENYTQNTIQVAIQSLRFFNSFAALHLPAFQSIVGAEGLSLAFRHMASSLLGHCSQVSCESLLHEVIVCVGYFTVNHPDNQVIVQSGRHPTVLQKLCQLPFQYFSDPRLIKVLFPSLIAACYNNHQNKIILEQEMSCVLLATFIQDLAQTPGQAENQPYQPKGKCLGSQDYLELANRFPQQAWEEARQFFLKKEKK

GATA4 (Homo sapiens) = GATA4 (Homo sapiens) (UniProt P43694)
ZNF114 (Homo sapiens) = ZNF114 (Homo sapiens) (UniProt Q8NC26)
HOXA5 (Homo sapiens) = HOXA5 (Homo sapiens) (UniProt P20719)
RNF138 (Homo sapiens) = target: T3, RNF138 (Homo sapiens) (UniProt Q8WVD3)
T3 sequence (looked up, limits assumed): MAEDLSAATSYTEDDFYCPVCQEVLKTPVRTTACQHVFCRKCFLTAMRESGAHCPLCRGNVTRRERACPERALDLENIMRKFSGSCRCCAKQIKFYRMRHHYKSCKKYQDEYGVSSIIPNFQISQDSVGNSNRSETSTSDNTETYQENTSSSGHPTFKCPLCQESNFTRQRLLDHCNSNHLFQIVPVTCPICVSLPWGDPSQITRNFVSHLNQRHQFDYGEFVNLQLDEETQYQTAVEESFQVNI

PPARG (Homo sapiens) = PPARG (Homo sapiens) (UniProt P37231)
ZCCHC7 (Homo sapiens) = target: T4, ZCCHC7 (Homo sapiens) (UniProt Q8N3Z6)
T4 sequence (looked up, limits assumed): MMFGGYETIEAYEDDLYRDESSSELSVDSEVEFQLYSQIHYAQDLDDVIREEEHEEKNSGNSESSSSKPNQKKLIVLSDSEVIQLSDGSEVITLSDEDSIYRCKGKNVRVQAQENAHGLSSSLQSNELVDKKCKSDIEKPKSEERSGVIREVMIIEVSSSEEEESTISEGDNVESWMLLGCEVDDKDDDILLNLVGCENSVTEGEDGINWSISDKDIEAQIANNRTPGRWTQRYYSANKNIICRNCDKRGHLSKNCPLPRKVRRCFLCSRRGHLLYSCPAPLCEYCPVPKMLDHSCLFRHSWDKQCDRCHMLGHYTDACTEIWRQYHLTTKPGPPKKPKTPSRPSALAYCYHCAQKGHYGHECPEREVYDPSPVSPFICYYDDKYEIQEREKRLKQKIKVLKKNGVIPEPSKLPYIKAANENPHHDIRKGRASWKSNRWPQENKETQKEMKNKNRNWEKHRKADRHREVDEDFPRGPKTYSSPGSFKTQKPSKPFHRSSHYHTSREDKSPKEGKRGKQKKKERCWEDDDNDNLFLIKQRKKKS

GATA3 (Homo sapiens) = GATA3 (Homo sapiens) (UniProt P23771)
NPAS2 (Homo sapiens) = target: T5, NPAS2 (Homo sapiens) (UniProt Q99743)
T5 sequence (looked up, limits assumed): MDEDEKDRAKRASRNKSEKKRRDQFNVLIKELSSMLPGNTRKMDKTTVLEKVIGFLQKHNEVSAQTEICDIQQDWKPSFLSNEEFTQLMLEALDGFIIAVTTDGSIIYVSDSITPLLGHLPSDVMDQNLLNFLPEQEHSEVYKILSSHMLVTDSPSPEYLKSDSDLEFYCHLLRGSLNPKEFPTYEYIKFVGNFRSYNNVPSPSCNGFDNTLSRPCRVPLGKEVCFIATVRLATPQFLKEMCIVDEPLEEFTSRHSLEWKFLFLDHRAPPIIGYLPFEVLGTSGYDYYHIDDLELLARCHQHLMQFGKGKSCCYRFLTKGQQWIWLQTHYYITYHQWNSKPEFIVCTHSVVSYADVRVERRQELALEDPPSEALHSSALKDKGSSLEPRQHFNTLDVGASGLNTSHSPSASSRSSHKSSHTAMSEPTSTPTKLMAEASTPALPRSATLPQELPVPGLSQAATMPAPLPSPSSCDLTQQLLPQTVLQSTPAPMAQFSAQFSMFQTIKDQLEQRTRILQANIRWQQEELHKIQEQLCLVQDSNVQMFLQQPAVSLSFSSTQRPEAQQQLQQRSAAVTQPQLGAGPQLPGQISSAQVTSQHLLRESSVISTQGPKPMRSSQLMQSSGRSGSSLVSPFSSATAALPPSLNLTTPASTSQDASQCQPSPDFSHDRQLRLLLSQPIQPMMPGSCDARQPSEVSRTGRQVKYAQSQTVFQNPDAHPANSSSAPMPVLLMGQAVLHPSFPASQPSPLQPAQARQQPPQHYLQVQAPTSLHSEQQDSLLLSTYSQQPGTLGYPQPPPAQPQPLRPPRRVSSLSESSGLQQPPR

Measured: binding result

TTTCCGGAAAGGGTTTCCGGAAACCCTATAGTGAGTGCTATTA (double strand) [M2]
not listed: RNF138 (Homo sapiens) | PPARG (Homo sapiens) | ZCCHC7 (Homo sapiens) | GATA3 (Homo sapiens) | NPAS2 (Homo sapiens)
binds: all other assays above

CCGGCTCAAACCGGCTCCCCTATAGTGAGTGCTATTA (double strand) [M99]
not listed: ZNF695 (Homo sapiens) | NFATC1 (Homo sapiens)
binds: all other assays above

The exact form of at least one protein or probe is not confirmed. For some of these results: Protein sequences can lack the tags named with them.
